The values that follow come from publication PMC3754942, “Selection of Specific Protein Binders for Pre-Defined Targets from an Optimized Library of Artificial Helicoidal Repeat Proteins (alphaRep)” (PLoS ONE, 2013).

In series [1] the target is T1, Ebs1 N-terminal domain (residues 1–610) (S. cerevisiae, UniProt Q03466 1-610).
T1 construct: Ebs1, Saccharomyces cerevisiae S288C, N-terminal domain, residues 1-610; source: E. coli BL21 DE3 (pET21-a), purified (Ni-NTA, SEC)
T1 sequence (looked up): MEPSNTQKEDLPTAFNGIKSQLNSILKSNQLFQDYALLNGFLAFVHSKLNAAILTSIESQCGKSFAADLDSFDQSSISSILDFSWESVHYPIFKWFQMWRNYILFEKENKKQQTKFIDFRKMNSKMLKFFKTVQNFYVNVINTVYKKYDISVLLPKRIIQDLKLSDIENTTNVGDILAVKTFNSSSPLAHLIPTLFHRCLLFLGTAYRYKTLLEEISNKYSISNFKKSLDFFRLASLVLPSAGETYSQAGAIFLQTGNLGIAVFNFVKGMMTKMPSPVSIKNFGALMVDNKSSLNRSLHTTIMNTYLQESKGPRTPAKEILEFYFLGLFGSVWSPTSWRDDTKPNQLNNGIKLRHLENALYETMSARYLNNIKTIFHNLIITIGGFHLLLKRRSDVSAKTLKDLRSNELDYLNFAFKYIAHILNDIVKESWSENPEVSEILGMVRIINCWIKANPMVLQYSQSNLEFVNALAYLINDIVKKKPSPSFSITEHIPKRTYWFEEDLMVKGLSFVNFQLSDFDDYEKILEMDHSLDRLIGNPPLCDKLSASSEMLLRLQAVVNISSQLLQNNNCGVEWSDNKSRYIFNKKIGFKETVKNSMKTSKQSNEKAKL
As to the kind of experiment: ITC; ITC 200 microcalorimeter, PBS, 2 μL injections of titrant (200 to 350 μM) into 20 to 35 μM of the partner in the cell, one-binding-site model, monomer concentrations; apparent Kd (may include dissociation of homodimers). Particulars: both partners purified.

The target of series [2] is T1, Ebs1 N-terminal domain (residues 1–610). Description: SEC-MALS; SEC-MALLS, data not shown. The following applies: both partners purified. On the technique in general: In gel filtration, larger molecules generally elute earlier.
Series [3] deals with the molecule itself. As to the kind of experiment: SEC-MALS; SEC-MALLS, data not shown.
In series [4] the target is T1, Ebs1 N-terminal domain (residues 1–610). Description: ITC; ITC 200 microcalorimeter, PBS, 2 μL injections of titrant (200 to 350 μM) into 20 to 35 μM of the partner in the cell, one-binding-site model, monomer concentrations; apparent Kd (may include dissociation of homodimers). Particulars: both partners purified. This is another data set of the same source. In general terms: Isothermal titration calorimetry measures the heat released or taken up as one component is titrated into another.

B1: αRep binder bEbs1–6 (designed binder)
chain: MRGSHHHHHHTDPEKVEMYIKNLQDDSLLVRFDAAVALGKIGDERAVEPLIKALKDEDWLVRFSAAWALGEIGDERAVEPLIKALKDEDSAVRTAAALALGKIGDERAVEPLIKALKDEDASVREEAARALGKIGDERAVEPLIKALKDEDAAVRYGAAAALGEIGDERAVEPLIKALKDEDRQVRSAAADALGEIGDERAVEPLIKALKDEDEFVRFSAADALGEIGDERAVEPLIKALKDEDASVRFSAAEALGEIGGERVRAAMEKLAETGTGFARKVAVNYLETHKSLIS
Regarding B1, the figures for the “stoichiometry N” value in series [1], in series [2] and in series [3] were 1.5 ± 0.1, 1 and 2, respectively. Further, the Kd in series [4] stood at 0.0123 ± 0.012 µM.

A word on the stoichiometry N: it is the number of molecules, sites or subunits per partner or assembly.
